Measured values: publication PMC12611961

Biological target: T1, SlAOS (pGBKT7-SlAOS) (tomato (Solanum lycopersicum)) (UniProt K4BV52)
T1 sequence: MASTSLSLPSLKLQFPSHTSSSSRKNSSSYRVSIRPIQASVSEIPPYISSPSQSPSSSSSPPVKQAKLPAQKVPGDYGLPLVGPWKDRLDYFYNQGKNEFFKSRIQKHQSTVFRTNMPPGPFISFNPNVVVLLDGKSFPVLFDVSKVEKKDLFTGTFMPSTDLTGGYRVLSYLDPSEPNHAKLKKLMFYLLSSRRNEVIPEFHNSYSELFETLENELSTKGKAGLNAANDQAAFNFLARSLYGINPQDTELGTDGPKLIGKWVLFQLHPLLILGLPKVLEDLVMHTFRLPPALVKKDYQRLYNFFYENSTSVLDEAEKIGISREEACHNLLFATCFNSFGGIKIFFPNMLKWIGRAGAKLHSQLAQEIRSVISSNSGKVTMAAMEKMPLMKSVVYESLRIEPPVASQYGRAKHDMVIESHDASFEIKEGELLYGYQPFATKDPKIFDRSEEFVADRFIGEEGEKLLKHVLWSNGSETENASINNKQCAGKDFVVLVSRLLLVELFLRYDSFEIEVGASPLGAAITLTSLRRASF
Experiment: two-hybrid; yeast AH109; pGADT7 fusion with pGBKT7 fusion; SD/-Leu/-Trp/-Ade/-His with 10 mM 3-AT (legend: 50 mM 3-AT), X-alpha-gal; 30 C, 3 days

- binding: no binding
Substance: SlWRKY75 (pGADT7-SlWRKY75) (from UniProt A0A3Q7GE34)

No constants are given. Whether binding was seen depends on the method and setting.
